Source: PubChem BioAssay AID602196 (INSERM, 2012)

Purpose: 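Genes whose knock-down alters cisplatin killing of lung cancer cells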
Cell system: human A549 lung cancer cells
Reagents: siRNA pair against human genes
Timing: 48 h transfection before cisplatin; time from cisplatin to read-out not stated
Treatment: cisplatin at a dose killing half of control-siRNA cells; exact dose and duration not given
Measurement: 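Cisplatin cell death as a shift from the 50% death seen with control siRNA; siRNAs toxic or growth-blocking alone scored 0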
Direction: two-siRNA summed score (-2 to +2): higher = both siRNAs protect from cisplatin killing; -2 means both sensitise; mean protection from cisplatin (shift in death): higher = protection from cisplatin killing
Active means: 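Each siRNA scores 0 if harmful alone by LDH or WST-1, otherwise +1 if it reduces and -1 if it increases cisplatin killing; a gene is active when both siRNAs agree (sum +2 or -2)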
Calls: active = both siRNAs shift cisplatin killing the same way; inactive = no consistent shift, or siRNA harmful alone
Shown is one part, drawn at random, of about 23,000 reagents. Of all reagents, 455 (2%) got an active call. 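Active includes both protection and sensitisation; some change values fall well beyond the stated -50 to +50 range.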 Reagents against one gene are numbered here. Further read-outs or replicates are left out here. Not given: the amount of reagent.

gene | reagent no. | two-siRNA summed score (-2 to +2) | mean protection from cisplatin (shift in death) (%) | Outcome
AHSA2P | 1 | 0 | -1.2 | inactive
IFT52 | 1 | 0 | 7.3 | inactive
TLN1 | 1 | 0 | -0.4 | inactive
LOC440620 | 1 | 1 | 11.5 | inactive
LOC391144 | 1 | 0 | -7.4 | inactive
CNKSR1 | 1 | 1 | 8.4 | inactive
CNKSR1 | 2 | 1 | 9 | inactive
MSX2P1 | 1 | 0 | 20.1 | inactive
NSUN5 | 1 | 0 | 18.8 | inactive
LARS1 | 1 | 0 | -3 | inactive
TMTC2 | 1 | 0 | 8.1 | inactive
PRPF8 | 1 | 0 | -22.4 | inactive
PMS2P5 | 1 | 0 | -3.2 | inactive
ODC1 | 1 | 0 | -1.4 | inactive
KIAA1447 | 1 | 0 | 2.1 | inactive
LOC389409 | 1 | 1 | 7.6 | inactive
CYP2A7 | 1 | 0 | 14.3 | inactive
SKIC2 | 1 | 1 | -1 | inactive
VCP | 1 | 0 | 0.5 | inactive
LOC442601 | 1 | 0 | 11.9 | inactive
LGALS17A | 1 | 0 | 2.6 | inactive
L3MBTL4 | 1 | 0 | 0.8 | inactive
RPS14 | 1 | 0 | 5.8 | inactive
OR8B8 | 1 | 1 | 18.6 | inactive
GFOD2 | 1 | 0 | -0.4 | inactive
SMC3 | 1 | 0 | 3.6 | inactive
NKX2-2 | 1 | 0 | 9 | inactive
KIAA1542 | 1 | -1 | -6.6 | inactive
AP1G2 | 1 | 1 | 12.7 | inactive
NAT10 | 1 | 0 | 7.8 | inactive
CYMP-AS1 | 1 | 0 | 9.7 | inactive
CD180 | 1 | 0 | 8.6 | inactive
DNAAF1 | 1 | 0 | 5.8 | inactive
LOC92482 | 1 | 0 | -3.3 | inactive
LOC441111 | 1 | -1 | -9.1 | inactive
LOC442556 | 1 | 1 | 12.8 | inactive
ANKRD30A | 1 | 0 | -2.9 | inactive
ZMYM2 | 1 | 1 | 16.2 | inactive
YAP1 | 1 | 0 | -5.5 | inactive
SDHAF3 | 1 | 0 | 3.2 | inactive
LOC440314 | 1 | 0 | 13.3 | inactive
ADAM10 | 1 | 0 | -3.3 | inactive
GKAP1 | 1 | 0 | -5.1 | inactive
PPARGC1A | 1 | -1 | -6.6 | inactive
ITPRIP | 1 | 1 | 15 | inactive
GRB10 | 1 | 0 | -2.4 | inactive
RBM46 | 1 | 1 | 14.2 | inactive
SIAH1 | 1 | 0 | 4 | inactive
MPV17L2 | 1 | 0 | -2.1 | inactive
SLC38A9 | 1 | 1 | -0.5 | inactive
LOC389392 | 1 | 1 | 8.5 | inactive
MYDGF | 1 | 0 | 0.6 | inactive
LPA | 1 | 0 | -10.5 | inactive
LOC131405 | 1 | 0 | 6.9 | inactive
LOC400452 | 1 | 0 | 13 | inactive
MKI67 | 1 | 0 | -7.1 | inactive
CYP2C18 | 1 | 1 | 12.2 | inactive
LINC01538 | 1 | 0 | 2.5 | inactive
OR10A2 | 1 | -2 | -16 | active
LHX6 | 1 | 0 | 7.8 | inactive
LOC346171 | 1 | 1 | 1.1 | inactive
FASTKD4 | 1 | 1 | 17.7 | inactive
LENG1 | 1 | 0 | 13.5 | inactive
LRR1 | 1 | 0 | 4.3 | inactive
WDR20 | 1 | 0 | 8.3 | inactive
LOC388558 | 1 | 0 | 3.1 | inactive
ADCY4 | 1 | 0 | 0.7 | inactive
C9orf163 | 1 | 0 | 0.1 | inactive
SMPD1 | 1 | 0 | 1.4 | inactive
BDKRB2 | 1 | 1 | 15.5 | inactive
PCDHGA11 | 1 | 1 | 10.1 | inactive
EDARADD | 1 | 1 | 18.2 | inactive
GREB1 | 1 | 0 | 8.8 | inactive

An excerpt from above, showing only “two-siRNA summed score (-2 to +2)”.
CNKSR1 #2	1
MSX2P1	0
NSUN5	0
LARS1	0
TMTC2	0
PRPF8	0
PMS2P5	0
ODC1	0
KIAA1447	0
